PubChem BioAssay AID1259254, NCATS | 2017
Shown is an unselected part of about 59,000 reagents tested. Of all reagents, about 1,550 (2.6%) are marked active. 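G2 share is only a proxy for re-replication; each gene was hit by three separate siRNAs, and active genes were retested.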 Reagents against one gene are numbered here. Not all columns of the deposit are shown. Not given: the amount of reagent.

Test: 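Genome-wide screen for genes that prevent DNA re-replication in cancer cells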 (primary screen)
System: human HCT116 colorectal cancer cells
Knock-down reagent: single siRNA against human genes
Duration: 3 days
Measurement: 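Imaged Hoechst DNA stain sorts each cell into a cycle phase by DNA amount; per plate, G2 fraction set to 0% for non-targeting and 100% for GMNN siRNA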
Direction: G2 robust z-score and G2 cells, % of GMNN control: higher = more G2 cells, more excess DNA replication
Rule for the call: 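Active siRNAs have a G2 robust z of 5 or more median absolute deviations over the median, which in these data means about 38% or higher of GMNN control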

{"Target gene":"UBE2QL1","reagent no.":1,"G2 robust z-score":0.605,"G2 cells, % of GMNN control":7.22,"Call":"inactive"}
{"Target gene":"UBE2QL1","reagent no.":2,"G2 robust z-score":-0.687,"G2 cells, % of GMNN control":-1.86,"Call":"inactive"}
{"Target gene":"UBE2QL1","reagent no.":3,"G2 robust z-score":-0.603,"G2 cells, % of GMNN control":-1.27,"Call":"inactive"}
{"Target gene":"HERPUD1","reagent no.":1,"G2 robust z-score":0.524,"G2 cells, % of GMNN control":6.66,"Call":"inactive"}
{"Target gene":"HERPUD1","reagent no.":2,"G2 robust z-score":-0.552,"G2 cells, % of GMNN control":-0.915,"Call":"inactive"}
{"Target gene":"HERPUD1","reagent no.":3,"G2 robust z-score":-0.495,"G2 cells, % of GMNN control":-0.518,"Call":"inactive"}
{"Target gene":"DEXI","reagent no.":1,"G2 robust z-score":0.113,"G2 cells, % of GMNN control":3.76,"Call":"inactive"}
{"Target gene":"DEXI","reagent no.":2,"G2 robust z-score":2.59,"G2 cells, % of GMNN control":21.2,"Call":"inactive"}
{"Target gene":"DEXI","reagent no.":3,"G2 robust z-score":8.61,"G2 cells, % of GMNN control":63.5,"Call":"active"}
{"Target gene":"SLC38A5","reagent no.":1,"G2 robust z-score":0.14,"G2 cells, % of GMNN control":3.95,"Call":"inactive"}
{"Target gene":"SLC38A5","reagent no.":2,"G2 robust z-score":0.207,"G2 cells, % of GMNN control":4.43,"Call":"inactive"}
{"Target gene":"SLC38A5","reagent no.":3,"G2 robust z-score":0.0758,"G2 cells, % of GMNN control":3.5,"Call":"inactive"}
